Assay results published in article PMC11446014, “Human IL-22 receptor-targeted small protein antagonist suppress murine DSS-induced colitis” (Cell Communication and Signaling : CCS, 2024).
No constants are given. Whether binding was seen depends on the method and setting. Some results given as binding are weak or reduced against the parent protein; the word gives no strength. Tags and fused reporters may be left off the sequences shown.

Molecular target: T1, IL-22R1 (IgG Fc chimera) (UniProt Q8N6P7)
T1 sequence: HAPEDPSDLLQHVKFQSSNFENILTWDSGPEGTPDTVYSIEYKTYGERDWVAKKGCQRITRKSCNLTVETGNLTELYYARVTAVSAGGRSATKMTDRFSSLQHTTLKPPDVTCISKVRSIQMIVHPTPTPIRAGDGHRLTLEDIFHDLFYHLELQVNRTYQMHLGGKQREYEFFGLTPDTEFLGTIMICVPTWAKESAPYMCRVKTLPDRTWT
Experiment: ELISA; competition, validation of the assay: IL-22R1 (IgG Fc chimera) coated at 2.5 µg/mL in carbonate buffer pH 9.6; IL-22 (His-tag) at 1 nM with serially diluted anti-IL-22 antibody IL22JOP; anti-His-tag HRP; both purified

- binding: binds
B1: IL-22 (His-tag) (ligand, UniProt Q9GZX6 34-179)
chain: APISSHCRLDKSNFQQPYITNRTFMLAKEASLADNNTDVRLIGEKLFHGVSMSERCYLMKQVLNFTLEEVLFPQSDRFQPYMQEVVPFLARLSNRLSTCHIEGDDLHIQRNVQKLKDTVKKLGESGEIKAIGELDLLFMSLRNACI
